Results: publication PMC5776125
No constants are given. Whether binding was seen depends on the method and setting. Some entries that bind do so weakly or less than the wild type.

Biological target: Human wt S100B (human) (UniProt P04271)
Experiment: native gel or EMSA + SEC; data not shown; purified recombinant S100B dimer and tetramer added to rat hippocampal cultures; SDS-PAGE also named; both purified

binding: binds
B1: Human wt S100B (protein, UniProt P04271 1-92)
chain: MSELEKAMVALIDVFHQYSGREGDKHKLKKSELKELINNELSHFLEEIKEQEVVDKVMETLDNDGDGECDFQEFMAFVAMVTTACHEFFEHE
